These are yes or no findings as the source states them, for the method shown.
Legend:
[1] = target: Abl2 (murine, residues 74-1182, as used in SEC-MALS and turbidity assays) (murine) (UniProt Q4JIM5); experiment: SEC-MALS
[2] = target: 557-C (Abl2 C-terminal half, as used in SEC and SEC-MALS) (murine) (UniProt Q4JIM5); experiment: SEC-MALS

Molecule | binding [1] | binding [2]
Abl2 (murine, residues 74-1182, as used in SEC-MALS and turbidity assays) (from UniProt Q4JIM5 74-1182) | no binding | –
557-C (Abl2 C-terminal half, as used in SEC and SEC-MALS) (domain or fragment, UniProt Q4JIM5 557-1182) GRTASSSSVVPYLPRLPLLPSKTRTLRKQGENKENLDGGLDAAESLASSSAPAGFIRSTQASSGSPALPRKQRDKSPSSLLEDAKETCFTRDRKGGFFSSFMKKRNAPTPPKRSSSFREMENQPHKKYELTGNFSPVASLQNADGFSVAPSQQEPNLVPAKCYGGSFAQRNLCADDDSGGGGGSGTAGGGWSGITGFFTPRLIKKTLGLRAGKPTASDDTSKPFPRSNSTSSMSSGLPEQDRMAMTLPRNCQRSKLQLERTVSTSSQPEENVDRANDMLPKKSEEGAAPARERPKAKLLPRGATALPLRAPDPAITESDSPGVGVAGVAAAPKGKERNGGTRLGVAGVPEDGEQLGWSSPAKAVAVLPTTHNHKVPVLISPTLKHTPADVQLIGTDSQGNKFKLLSEHQVTSSGDKDRPRRVKPKCAPPPPPVMRLLQHPSTCSDPEEEPTAPPAGQHTPETQEGGKKAAPGPVPSSGKPGRPVMPPPQVPLPTSSISPAKMANGTAGTKVALRKTKQAAEKISADKISKEALLECADLLSSAITEPVPNSQLVDTGHQLLDYCSGYVDSIPQTRNKFAFREAVSKLELSLQELQVSSTAAGVPGTNPVLNNLLSCVQEISDVVQR | – | no binding

— paper doi:10.1101/2022.06.21.496973
